Compound in this assay: Nc1nc2c(ncn2[C@@H]2O[C@H](COP(=O)(O)OP(=O)(O)OP(=O)(O)O)[C@@H](O)[C@H]2O)c(=O)[nH]1 [guanosine triphosphate]
Kind of assay: NP40-soluble protein abundance relative to vehicle (solubility fold change) (ratio); higher = more soluble protein in presence of GTP. The method, boiled down:
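Across three independent experiments, values are fold changes against the detergent-processed vehicle for each replicate, based on vsn-normalised intensities. The samples were Jurkat crude lysate treated with eight concentrations (0.1 to 10 mM) for 10 min at room temperature and then 3 min at 37 °C. Lysate was solubilised with 0.8% NP40 and benzonase, ultracentrifuged, and the supernatant analysed by TMT-labelled LC-MS/MS.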

By UniProt entry, the sequences of proteins in these tests, tags left out. Where a name states a change or a piece, a line headed by the entry shows the natural chain unless it says otherwise.
UniProt Q8N5P1: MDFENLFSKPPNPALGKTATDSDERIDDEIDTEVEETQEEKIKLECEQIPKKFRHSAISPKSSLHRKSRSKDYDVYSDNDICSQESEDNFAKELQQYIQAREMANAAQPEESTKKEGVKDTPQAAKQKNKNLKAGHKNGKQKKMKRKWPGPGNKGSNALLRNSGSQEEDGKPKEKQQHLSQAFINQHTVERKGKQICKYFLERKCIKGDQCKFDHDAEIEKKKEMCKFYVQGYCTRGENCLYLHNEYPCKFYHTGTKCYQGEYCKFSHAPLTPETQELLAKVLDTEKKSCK
UniProt Q9NP80: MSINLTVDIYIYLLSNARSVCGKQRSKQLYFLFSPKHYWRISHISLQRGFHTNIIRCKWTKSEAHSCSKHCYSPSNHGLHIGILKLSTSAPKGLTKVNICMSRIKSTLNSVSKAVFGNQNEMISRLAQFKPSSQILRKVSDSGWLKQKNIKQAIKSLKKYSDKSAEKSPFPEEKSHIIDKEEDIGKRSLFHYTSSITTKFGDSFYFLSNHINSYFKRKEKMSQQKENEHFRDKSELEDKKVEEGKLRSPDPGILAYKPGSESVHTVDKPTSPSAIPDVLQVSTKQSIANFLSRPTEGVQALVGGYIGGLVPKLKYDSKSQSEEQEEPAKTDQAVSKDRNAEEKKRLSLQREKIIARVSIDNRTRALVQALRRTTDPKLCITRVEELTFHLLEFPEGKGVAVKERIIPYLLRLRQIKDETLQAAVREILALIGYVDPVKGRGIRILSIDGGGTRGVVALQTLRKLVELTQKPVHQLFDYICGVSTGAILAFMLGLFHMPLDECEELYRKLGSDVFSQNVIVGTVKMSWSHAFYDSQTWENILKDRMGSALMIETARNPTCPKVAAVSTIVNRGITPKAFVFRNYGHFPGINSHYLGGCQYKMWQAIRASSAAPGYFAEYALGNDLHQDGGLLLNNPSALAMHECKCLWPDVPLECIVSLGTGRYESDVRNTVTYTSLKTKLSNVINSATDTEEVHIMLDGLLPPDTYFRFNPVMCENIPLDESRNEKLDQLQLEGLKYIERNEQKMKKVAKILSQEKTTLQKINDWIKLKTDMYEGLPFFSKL
UniProt O60610, whole entry: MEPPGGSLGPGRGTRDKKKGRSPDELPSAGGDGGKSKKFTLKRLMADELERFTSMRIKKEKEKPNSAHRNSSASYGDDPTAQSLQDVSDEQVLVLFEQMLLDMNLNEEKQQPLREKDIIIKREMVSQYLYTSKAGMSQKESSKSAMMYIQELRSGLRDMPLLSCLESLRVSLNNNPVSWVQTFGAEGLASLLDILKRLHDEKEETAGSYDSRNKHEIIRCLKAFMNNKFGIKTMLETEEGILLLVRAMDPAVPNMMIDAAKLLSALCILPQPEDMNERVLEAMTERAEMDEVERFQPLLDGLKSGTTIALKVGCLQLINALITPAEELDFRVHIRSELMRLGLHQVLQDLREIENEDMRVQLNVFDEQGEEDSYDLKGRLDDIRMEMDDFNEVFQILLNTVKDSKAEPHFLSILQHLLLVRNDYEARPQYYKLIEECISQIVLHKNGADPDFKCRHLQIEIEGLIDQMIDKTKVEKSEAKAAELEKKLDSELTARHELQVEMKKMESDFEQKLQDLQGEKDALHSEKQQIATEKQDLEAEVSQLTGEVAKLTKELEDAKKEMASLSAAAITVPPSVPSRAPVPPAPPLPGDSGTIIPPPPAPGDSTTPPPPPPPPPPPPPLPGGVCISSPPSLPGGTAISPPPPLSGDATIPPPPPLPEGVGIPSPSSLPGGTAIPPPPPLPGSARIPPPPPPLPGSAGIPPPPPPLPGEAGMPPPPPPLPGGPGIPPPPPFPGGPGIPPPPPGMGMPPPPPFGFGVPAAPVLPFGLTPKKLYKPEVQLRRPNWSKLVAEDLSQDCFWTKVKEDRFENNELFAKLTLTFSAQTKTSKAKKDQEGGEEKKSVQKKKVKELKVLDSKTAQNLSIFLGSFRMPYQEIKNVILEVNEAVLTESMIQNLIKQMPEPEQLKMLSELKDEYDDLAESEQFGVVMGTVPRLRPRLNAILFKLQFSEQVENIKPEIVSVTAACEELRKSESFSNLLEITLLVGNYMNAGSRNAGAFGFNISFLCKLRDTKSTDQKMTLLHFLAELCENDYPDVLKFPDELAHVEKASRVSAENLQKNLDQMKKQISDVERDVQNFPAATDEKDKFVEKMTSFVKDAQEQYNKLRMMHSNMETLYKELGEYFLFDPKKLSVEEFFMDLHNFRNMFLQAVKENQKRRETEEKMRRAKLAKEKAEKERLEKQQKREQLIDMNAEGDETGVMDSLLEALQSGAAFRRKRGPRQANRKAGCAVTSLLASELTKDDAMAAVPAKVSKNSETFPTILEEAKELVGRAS
UniProt Q12979: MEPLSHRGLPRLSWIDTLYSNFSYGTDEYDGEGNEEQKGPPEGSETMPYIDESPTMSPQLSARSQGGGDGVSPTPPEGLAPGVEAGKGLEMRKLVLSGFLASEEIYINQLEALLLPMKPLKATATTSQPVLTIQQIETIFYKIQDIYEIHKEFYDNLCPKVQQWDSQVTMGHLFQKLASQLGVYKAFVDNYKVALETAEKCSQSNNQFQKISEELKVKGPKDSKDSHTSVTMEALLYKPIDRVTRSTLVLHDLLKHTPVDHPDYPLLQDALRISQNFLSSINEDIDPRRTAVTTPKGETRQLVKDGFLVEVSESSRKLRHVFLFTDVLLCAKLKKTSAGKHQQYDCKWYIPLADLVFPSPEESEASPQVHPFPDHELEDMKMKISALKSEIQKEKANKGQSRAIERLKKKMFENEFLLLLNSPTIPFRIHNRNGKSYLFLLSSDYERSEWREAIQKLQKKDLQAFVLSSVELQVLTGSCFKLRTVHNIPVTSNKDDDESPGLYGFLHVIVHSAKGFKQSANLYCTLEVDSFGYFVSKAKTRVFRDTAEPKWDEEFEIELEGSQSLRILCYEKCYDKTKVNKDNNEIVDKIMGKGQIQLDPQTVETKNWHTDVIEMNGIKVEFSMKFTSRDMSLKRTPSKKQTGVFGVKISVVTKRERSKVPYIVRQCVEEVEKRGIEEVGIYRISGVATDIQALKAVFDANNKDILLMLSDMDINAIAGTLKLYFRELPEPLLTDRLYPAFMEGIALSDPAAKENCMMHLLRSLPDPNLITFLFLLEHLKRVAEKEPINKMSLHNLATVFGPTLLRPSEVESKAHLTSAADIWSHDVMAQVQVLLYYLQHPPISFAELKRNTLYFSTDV
UniProt Q7Z478: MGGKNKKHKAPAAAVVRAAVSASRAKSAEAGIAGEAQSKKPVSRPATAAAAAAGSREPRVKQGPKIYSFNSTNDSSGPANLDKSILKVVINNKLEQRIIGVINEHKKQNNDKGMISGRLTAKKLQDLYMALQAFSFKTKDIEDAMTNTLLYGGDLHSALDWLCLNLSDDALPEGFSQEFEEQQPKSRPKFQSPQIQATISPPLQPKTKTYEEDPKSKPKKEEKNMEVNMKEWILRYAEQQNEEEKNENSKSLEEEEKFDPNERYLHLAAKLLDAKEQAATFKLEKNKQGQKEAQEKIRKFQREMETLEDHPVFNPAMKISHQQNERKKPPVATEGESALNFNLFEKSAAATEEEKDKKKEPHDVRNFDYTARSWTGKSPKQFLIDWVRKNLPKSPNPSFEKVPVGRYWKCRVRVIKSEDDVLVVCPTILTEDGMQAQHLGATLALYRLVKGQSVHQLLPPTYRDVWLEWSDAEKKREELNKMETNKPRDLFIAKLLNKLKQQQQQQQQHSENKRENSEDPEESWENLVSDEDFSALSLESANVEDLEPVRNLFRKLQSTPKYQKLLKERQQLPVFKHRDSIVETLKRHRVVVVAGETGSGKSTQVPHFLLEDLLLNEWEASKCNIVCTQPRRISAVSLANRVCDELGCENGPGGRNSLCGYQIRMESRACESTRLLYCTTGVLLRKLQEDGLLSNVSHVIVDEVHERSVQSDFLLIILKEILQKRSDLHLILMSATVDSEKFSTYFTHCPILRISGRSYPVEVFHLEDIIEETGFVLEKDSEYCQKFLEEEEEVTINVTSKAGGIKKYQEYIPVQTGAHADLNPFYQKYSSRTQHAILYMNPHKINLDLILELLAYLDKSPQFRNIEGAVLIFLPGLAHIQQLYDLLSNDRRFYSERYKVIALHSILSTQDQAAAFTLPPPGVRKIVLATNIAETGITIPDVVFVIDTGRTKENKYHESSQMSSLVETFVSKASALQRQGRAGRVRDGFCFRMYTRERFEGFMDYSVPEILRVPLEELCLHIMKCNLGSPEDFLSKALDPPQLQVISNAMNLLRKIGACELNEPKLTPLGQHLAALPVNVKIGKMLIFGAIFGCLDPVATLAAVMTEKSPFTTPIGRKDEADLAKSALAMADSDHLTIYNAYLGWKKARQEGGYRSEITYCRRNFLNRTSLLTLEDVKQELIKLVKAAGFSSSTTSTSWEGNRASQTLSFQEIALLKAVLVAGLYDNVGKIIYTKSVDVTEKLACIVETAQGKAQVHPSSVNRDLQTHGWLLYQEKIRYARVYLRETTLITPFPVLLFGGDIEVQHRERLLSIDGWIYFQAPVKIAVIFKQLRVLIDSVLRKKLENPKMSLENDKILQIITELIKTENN
UniProt Q8WUA7: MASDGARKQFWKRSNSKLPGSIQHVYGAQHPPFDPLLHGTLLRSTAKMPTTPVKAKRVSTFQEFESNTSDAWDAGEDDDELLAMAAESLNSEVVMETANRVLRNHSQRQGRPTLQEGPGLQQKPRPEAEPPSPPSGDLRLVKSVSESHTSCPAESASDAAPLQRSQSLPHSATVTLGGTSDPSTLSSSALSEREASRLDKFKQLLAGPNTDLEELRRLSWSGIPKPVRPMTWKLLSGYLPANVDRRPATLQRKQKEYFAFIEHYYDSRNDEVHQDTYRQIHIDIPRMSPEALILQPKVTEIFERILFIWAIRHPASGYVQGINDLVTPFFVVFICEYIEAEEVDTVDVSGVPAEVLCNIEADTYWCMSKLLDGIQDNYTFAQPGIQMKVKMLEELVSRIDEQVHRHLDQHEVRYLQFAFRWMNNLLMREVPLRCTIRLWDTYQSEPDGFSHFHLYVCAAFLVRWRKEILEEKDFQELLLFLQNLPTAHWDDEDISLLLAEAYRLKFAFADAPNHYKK
UniProt Q16629: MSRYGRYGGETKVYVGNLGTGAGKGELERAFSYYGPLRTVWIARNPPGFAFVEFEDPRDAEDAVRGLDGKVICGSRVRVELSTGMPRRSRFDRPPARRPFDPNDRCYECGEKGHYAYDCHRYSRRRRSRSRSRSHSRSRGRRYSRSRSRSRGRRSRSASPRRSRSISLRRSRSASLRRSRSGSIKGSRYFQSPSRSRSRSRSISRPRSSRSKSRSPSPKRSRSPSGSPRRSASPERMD
UniProt P09234, whole entry: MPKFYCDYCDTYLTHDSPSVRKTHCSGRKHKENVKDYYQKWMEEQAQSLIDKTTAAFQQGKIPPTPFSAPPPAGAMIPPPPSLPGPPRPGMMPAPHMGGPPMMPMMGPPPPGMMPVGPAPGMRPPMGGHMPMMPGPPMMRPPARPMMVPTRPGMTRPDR

We go through twelve targets from the supplement of paper PMC6411743.

± gives the standard deviation of the averaged measurements. The list shows a part of the results.

For the target “A0A0G2JNZ2|A0A0G2JPP5|Q14160 and related entries (UniProt Q14160)”, the NP40-soluble protein abundance by setting is: (concentration: 0.1mM) 1.005 ± 0.01; (concentration: 0.5mM) 0.998 ± 0.038; (concentration: 1mM) 1.01 ± 0.045; (concentration: 2mM) 0.98 ± 0.064; (concentration: 4mM) 0.964 ± 0.023; (concentration: 6mM) 0.957 ± 0.031. The NP40-soluble protein abundance (concentration: 8mM) is 0.988 ± 0.022 and the NP40-soluble protein abundance (concentration: 10mM) turned out to be 0.976 ± 0.028.

Regarding A0A0C4DGZ1|Q8N5P1 (UniProt Q8N5P1), the NP40-soluble protein abundance reads like this: (concentration: 0.1mM) 0.912 ± 0.077; (concentration: 0.5mM) 0.873 ± 0.047; (concentration: 1mM) 1.02 ± 0.054; (concentration: 2mM) 1.04 ± 0.03; (concentration: 4mM) 1.1 ± 0.054; (concentration: 6mM) 1.11 ± 0.049. For the same target, the NP40-soluble protein abundance was determined as 1.2 ± 0.048 (concentration: 8mM) and 1.25 ± 0.13 (concentration: 10mM).

For “A0A0C4DG51|Q9NP80 and related entries (UniProt Q9NP80)”, the NP40-soluble protein abundance turned out to be 1.08 ± 0.074 (concentration: 0.1mM); 1.03 ± 0.12 (concentration: 0.5mM); 0.871 ± 0.034 (concentration: 1mM); 0.897 ± 0.065 (concentration: 2mM); 0.915 ± 0.094 (concentration: 4mM); 0.867 ± 0.079 (concentration: 6mM). The NP40-soluble protein abundance stood at 0.833 ± 0.055 (concentration: 8mM) and 0.898 ± 0.15 (concentration: 10mM).

Turning to “A0A0A0MTR7|Q63HN8 and related entries (UniProt Q63HN8)”, the NP40-soluble protein abundance runs as follows: (concentration: 0.1mM) 1.11 ± 0.064; (concentration: 0.5mM) 1.15 ± 0.11; (concentration: 1mM) 1.07 ± 0.079; (concentration: 2mM) 1.16 ± 0.15; (concentration: 4mM) 1.19 ± 0.12; (concentration: 6mM) 1.17 ± 0.13. Further, the NP40-soluble protein abundance runs as follows: (concentration: 8mM) 1.15 ± 0.087; (concentration: 10mM) 1.11 ± 0.099.

For A0A0G2JH68 (UniProt O60610), the NP40-soluble protein abundance amounted to 0.964 ± 0.043 (concentration: 0.1mM); 0.974 ± 0.04 (concentration: 0.5mM); 0.997 ± 0.05 (concentration: 1mM); 0.955 ± 0.067 (concentration: 2mM); 0.951 ± 0.064 (concentration: 4mM); 0.969 ± 0.059 (concentration: 6mM). Further, the NP40-soluble protein abundance by setting is: (concentration: 8mM) 0.977 ± 0.029; (concentration: 10mM) 0.963 ± 0.04.

With “A0A087X211|Q8TCG1 and related entries (UniProt Q8TCG1)”, the NP40-soluble protein abundance was 0.986 ± 0.018 (concentration: 0.1mM); 1.01 ± 0.025 (concentration: 0.5mM); 1 ± 0.012 (concentration: 1mM); 0.936 ± 0.031 (concentration: 2mM); 0.947 ± 0.037 (concentration: 4mM); 0.959 ± 0.038 (concentration: 6mM). Also, the NP40-soluble protein abundance turned out to be 0.993 ± 0.034 (concentration: 8mM) and 0.963 ± 0.016 (concentration: 10mM).

On to A0AVT1, for which the NP40-soluble protein abundance by setting is: (concentration: 0.1mM) 1.02 ± 0.06; (concentration: 0.5mM) 1.02 ± 0.046; (concentration: 1mM) 0.938 ± 0.034; (concentration: 2mM) 0.929 ± 0.072; (concentration: 4mM) 0.915 ± 0.075; (concentration: 6mM) 0.909 ± 0.04. The NP40-soluble protein abundance is, setting by setting: (concentration: 8mM) 0.879 ± 0.03; (concentration: 10mM) 0.847 ± 0.07.

For “A0A0G2JQ41|Q12979 and related entries (UniProt Q12979)”, the NP40-soluble protein abundance reads like this: (concentration: 0.1mM) 1.03 ± 0.059; (concentration: 0.5mM) 1.05 ± 0.071; (concentration: 1mM) 0.969 ± 0.03; (concentration: 2mM) 1.01 ± 0.064; (concentration: 4mM) 0.973 ± 0.066; (concentration: 6mM) 0.955 ± 0.066. The NP40-soluble protein abundance reads like this: (concentration: 8mM) 0.938 ± 0.025; (concentration: 10mM) 0.9 ± 0.052.

On to A0A087WYN9|Q7Z478 (UniProt Q7Z478), for which the NP40-soluble protein abundance runs as follows: (concentration: 0.1mM) 1.34 ± 0.086; (concentration: 0.5mM) 1.69 ± 0.26; (concentration: 1mM) 1.66 ± 0.28; (concentration: 2mM) 1.77 ± 0.29; (concentration: 4mM) 1.8 ± 0.23; (concentration: 6mM) 1.84 ± 0.27. In addition, the NP40-soluble protein abundance reads like this: (concentration: 8mM) 1.86 ± 0.27; (concentration: 10mM) 1.86 ± 0.19.

With “A0A0A0MRY0|Q8WUA7 and related entries (UniProt Q8WUA7)”, the NP40-soluble protein abundance is, setting by setting: (concentration: 0.1mM) 1.11 ± 0.024; (concentration: 0.5mM) 1.05 ± 0.042; (concentration: 1mM) 0.978 ± 0.026; (concentration: 2mM) 1.01 ± 0.039; (concentration: 4mM) 0.969 ± 0.12; (concentration: 6mM) 0.94 ± 0.016. The NP40-soluble protein abundance is, setting by setting: (concentration: 8mM) 0.9628 ± 0.0058; (concentration: 10mM) 0.884 ± 0.065.

As for “A0A0B4J1Z1|C9JAB2 and related entries (UniProt Q16629)”, the NP40-soluble protein abundance was 1.089 ± 0.0095 (concentration: 0.1mM); 1.36 ± 0.1 (concentration: 0.5mM); 1.57 ± 0.23 (concentration: 1mM); 1.58 ± 0.16 (concentration: 2mM); 1.44 ± 0.33 (concentration: 4mM); 1.55 ± 0.35 (concentration: 6mM). For the same target, the NP40-soluble protein abundance reads like this: (concentration: 8mM) 1.74 ± 0.47; (concentration: 10mM) 1.75 ± 0.52.

In the case of A0A0A0MRR7|P09234 (UniProt P09234), the NP40-soluble protein abundance was found to be 1.06 ± 0.017 (concentration: 0.1mM); 1.19 ± 0.068 (concentration: 0.5mM); 1.25 ± 0.068 (concentration: 1mM); 1.36 ± 0.052 (concentration: 2mM); 1.33 ± 0.11 (concentration: 4mM); 1.56 ± 0.097 (concentration: 6mM). In addition, the NP40-soluble protein abundance was 1.71 ± 0.2 (concentration: 8mM) and 1.82 ± 0.24 (concentration: 10mM).
